Assay results taken from the supplement of paper PMC10849652.
The list shows a part of the results.

By UniProt entry, the sequences of proteins in these tests, tags left out. Where a name states a change or a piece, a line headed by the entry shows the natural chain unless it says otherwise.
UniProt O00522: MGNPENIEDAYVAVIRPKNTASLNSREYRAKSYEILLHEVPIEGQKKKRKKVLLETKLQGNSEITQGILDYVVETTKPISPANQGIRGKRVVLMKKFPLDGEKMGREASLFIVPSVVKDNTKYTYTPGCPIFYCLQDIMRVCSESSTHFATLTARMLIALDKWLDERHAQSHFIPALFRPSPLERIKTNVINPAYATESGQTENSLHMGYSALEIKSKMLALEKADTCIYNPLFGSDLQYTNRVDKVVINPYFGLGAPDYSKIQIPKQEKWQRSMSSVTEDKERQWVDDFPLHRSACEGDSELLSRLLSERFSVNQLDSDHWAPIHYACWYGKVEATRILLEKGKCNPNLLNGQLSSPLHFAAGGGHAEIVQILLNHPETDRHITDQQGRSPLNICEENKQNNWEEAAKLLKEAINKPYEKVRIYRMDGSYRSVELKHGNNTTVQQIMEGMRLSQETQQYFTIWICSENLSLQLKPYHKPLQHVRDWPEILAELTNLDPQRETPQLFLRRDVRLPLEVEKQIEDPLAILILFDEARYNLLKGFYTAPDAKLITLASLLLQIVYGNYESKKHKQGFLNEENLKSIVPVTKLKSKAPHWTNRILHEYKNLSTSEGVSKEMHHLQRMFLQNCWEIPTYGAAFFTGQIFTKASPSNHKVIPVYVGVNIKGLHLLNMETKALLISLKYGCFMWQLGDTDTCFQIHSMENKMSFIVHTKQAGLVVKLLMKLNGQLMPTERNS
UniProt Q9NZM3: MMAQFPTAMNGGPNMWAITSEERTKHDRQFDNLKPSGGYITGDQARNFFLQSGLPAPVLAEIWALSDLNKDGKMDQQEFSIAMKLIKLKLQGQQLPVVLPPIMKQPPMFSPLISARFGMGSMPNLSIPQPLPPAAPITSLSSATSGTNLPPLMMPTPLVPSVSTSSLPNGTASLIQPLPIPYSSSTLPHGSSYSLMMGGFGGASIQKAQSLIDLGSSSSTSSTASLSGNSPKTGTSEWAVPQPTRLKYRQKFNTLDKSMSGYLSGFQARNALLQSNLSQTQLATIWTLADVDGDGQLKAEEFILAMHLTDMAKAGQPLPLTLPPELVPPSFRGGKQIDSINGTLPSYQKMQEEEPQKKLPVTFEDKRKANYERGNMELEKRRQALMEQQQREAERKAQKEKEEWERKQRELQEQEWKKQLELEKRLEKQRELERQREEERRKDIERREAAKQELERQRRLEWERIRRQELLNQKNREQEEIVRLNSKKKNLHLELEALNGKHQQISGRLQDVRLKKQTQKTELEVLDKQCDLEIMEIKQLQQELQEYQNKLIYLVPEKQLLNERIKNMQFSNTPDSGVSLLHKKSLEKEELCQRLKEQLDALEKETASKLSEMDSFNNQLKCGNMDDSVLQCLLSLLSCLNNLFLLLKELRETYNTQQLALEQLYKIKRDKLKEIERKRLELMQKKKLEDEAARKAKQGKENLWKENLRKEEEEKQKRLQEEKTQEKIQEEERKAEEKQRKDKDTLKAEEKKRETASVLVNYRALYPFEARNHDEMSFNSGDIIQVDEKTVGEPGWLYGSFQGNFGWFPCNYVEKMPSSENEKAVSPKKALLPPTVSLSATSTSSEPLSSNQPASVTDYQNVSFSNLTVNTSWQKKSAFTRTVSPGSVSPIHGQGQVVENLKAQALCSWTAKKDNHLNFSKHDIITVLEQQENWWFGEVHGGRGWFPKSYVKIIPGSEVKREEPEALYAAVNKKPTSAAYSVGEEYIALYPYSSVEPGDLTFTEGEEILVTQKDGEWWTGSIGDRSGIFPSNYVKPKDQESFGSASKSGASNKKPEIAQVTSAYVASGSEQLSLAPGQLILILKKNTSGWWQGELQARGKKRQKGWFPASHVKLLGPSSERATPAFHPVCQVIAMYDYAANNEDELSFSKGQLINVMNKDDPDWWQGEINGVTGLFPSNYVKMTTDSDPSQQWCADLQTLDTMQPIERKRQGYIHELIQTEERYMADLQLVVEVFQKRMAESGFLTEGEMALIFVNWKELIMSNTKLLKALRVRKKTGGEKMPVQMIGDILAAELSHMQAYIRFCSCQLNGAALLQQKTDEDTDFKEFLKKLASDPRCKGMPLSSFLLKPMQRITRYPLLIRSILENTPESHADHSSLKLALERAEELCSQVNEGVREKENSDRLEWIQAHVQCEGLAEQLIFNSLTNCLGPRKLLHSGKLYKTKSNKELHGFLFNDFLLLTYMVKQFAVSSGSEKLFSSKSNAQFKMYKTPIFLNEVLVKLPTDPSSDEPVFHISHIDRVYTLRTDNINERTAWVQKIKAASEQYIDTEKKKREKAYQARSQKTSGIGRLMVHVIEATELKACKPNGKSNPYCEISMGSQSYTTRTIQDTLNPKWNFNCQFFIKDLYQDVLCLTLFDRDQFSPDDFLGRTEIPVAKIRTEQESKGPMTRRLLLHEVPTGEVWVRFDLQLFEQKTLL
UniProt Q8N4N3: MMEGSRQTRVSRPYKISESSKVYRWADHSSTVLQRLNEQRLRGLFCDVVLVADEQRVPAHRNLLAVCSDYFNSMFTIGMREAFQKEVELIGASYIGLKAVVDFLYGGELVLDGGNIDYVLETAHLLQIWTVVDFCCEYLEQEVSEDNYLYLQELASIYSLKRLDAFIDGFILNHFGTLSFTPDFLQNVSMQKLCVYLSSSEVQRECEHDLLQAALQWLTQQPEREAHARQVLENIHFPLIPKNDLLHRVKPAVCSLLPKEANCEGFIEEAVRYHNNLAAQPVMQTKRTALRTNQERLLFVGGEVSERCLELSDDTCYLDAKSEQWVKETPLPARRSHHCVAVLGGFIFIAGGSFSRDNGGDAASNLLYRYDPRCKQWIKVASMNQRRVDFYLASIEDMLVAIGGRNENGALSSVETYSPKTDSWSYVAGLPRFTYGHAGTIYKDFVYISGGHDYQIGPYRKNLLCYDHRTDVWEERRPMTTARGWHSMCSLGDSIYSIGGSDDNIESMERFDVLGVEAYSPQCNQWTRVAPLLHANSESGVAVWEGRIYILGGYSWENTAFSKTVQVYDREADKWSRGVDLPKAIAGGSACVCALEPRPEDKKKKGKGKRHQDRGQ
UniProt Q8IZD2: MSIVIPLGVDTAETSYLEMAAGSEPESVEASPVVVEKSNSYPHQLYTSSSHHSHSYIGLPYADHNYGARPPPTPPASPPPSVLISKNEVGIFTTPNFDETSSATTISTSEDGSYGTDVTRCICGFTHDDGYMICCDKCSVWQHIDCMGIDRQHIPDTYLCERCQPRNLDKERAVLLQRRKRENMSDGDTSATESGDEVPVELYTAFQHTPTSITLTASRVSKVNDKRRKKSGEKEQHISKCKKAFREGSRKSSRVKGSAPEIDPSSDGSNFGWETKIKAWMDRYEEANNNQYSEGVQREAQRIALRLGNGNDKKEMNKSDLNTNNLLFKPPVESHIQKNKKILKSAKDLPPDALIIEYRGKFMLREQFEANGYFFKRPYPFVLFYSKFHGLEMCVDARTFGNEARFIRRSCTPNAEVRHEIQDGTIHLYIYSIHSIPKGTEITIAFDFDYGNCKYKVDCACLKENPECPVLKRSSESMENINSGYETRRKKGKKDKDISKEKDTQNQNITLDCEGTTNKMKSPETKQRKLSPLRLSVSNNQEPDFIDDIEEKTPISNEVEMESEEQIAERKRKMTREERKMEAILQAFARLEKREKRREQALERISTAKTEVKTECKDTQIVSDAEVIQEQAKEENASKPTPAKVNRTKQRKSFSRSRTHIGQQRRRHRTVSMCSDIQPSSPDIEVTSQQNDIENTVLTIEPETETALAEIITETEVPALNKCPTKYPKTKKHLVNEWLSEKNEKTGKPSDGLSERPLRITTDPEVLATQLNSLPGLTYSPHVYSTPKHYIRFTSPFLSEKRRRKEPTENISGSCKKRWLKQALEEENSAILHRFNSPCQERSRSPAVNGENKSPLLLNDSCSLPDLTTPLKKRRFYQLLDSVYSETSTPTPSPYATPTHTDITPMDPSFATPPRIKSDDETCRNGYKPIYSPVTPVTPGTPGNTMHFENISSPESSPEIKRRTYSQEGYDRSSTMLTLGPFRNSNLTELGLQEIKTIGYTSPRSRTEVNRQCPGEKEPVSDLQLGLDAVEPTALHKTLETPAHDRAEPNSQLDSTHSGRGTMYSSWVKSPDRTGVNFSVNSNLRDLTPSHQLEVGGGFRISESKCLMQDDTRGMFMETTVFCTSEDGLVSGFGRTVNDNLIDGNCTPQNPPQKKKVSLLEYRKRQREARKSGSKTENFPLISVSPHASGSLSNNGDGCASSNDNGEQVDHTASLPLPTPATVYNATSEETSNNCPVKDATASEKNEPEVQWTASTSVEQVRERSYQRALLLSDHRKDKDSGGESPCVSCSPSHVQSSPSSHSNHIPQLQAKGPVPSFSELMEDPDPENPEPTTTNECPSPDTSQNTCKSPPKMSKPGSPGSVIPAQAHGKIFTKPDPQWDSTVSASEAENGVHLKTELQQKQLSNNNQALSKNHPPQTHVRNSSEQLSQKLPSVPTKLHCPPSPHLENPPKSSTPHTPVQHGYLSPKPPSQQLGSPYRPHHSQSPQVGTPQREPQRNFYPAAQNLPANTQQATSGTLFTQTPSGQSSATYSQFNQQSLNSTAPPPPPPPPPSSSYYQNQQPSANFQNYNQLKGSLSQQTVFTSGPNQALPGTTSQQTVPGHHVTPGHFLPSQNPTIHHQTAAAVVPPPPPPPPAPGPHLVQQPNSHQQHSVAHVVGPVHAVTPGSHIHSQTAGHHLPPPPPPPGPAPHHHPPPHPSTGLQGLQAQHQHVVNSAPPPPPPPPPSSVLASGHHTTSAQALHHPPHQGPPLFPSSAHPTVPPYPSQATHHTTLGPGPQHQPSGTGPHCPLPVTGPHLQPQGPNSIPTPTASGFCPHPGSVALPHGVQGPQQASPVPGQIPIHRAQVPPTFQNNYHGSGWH
UniProt O95235: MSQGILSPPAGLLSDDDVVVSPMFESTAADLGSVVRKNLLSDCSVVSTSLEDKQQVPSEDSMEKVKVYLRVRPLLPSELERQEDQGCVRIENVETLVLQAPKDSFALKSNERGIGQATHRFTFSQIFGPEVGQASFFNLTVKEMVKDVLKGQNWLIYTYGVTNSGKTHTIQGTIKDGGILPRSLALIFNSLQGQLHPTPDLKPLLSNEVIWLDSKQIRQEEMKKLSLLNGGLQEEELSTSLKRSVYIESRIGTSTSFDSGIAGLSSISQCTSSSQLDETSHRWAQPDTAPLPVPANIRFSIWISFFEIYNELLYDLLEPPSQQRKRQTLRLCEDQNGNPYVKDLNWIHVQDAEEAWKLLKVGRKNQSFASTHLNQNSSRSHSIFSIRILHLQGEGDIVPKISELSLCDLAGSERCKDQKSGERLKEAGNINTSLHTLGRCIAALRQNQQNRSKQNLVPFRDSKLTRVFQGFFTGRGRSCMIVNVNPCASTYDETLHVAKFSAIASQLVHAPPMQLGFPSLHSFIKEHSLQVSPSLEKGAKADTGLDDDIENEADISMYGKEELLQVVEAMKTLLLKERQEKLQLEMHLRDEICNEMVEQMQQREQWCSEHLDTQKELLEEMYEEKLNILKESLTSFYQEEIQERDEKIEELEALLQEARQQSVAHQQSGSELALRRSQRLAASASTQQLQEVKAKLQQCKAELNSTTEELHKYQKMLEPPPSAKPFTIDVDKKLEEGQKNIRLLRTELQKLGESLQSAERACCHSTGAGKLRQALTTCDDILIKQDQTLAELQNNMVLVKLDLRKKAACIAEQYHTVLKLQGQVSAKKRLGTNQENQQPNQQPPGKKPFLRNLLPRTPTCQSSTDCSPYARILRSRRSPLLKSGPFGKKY
UniProt Q8NAX2: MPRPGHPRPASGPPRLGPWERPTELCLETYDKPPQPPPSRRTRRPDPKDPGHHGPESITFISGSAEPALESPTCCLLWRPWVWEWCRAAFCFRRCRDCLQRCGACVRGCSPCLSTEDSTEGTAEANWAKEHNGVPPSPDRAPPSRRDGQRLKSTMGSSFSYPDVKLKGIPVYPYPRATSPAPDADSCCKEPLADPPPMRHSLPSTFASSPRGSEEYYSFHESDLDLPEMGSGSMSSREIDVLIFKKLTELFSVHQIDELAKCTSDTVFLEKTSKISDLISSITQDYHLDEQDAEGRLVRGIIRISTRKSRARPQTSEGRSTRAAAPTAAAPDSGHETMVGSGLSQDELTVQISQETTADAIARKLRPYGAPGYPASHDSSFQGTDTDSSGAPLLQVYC
UniProt Q9NQR1: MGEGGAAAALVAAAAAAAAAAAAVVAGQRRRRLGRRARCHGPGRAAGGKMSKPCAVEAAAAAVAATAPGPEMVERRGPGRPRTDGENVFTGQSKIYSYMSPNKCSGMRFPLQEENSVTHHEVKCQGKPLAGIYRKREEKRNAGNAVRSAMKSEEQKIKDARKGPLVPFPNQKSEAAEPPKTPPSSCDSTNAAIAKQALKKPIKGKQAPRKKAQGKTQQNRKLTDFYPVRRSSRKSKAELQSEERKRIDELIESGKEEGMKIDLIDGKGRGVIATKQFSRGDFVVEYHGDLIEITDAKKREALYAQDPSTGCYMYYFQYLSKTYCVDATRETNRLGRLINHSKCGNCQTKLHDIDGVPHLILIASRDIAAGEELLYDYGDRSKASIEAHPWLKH

What was measured:
Assay in all cases: log2 fold change, soluble protein after heating vs DMSO (PISA); higher = thermal stabilisation; K562 cells, 10 uM, 30 min; active = over 0.2 and 3.5 SD of the protein, either way, in both replicates (recomputed)
volasertib = compound: CC[C@@H]1C(=O)N(C)c2cnc(Nc3ccc(C(=O)N[C@H]4CC[C@H](N5CCN(CC6CC6)CC5)CC4)cc3OC)nc2N1C(C)C [volasertib]
In short: (§1)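 K562 cells at 2×10^6 cells/mL were treated for 30 min with 10 μM compound, and aliquots were heated for 3 min over 48°C-58°C before pooling. Extraction used PBS with 0.5% NP-40 at 4°C, and soluble protein was the supernatant after 21,000xg for 90 min, measured by TMTpro 16plex LC-MS/MS with channel sums equalised. Thermal stability values, relative to control samples and from duplicates, are log2 fold changes.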

[1] = compound: CC[C@H](C)N1C=C(C2=C(C=C(C=C21)C3=CN=C(C=C3)N4CCNCC4)C(=O)NCC5=C(C=C(NC5=O)C)C)C
In short: as §1

[2] = compound: CCn1cc(-c2ccnc3[nH]c(-c4cccc(CN(C)C)c4)cc23)c(-c2ccc(NC(=O)N(C)C)cc2)n1
In short: as §1

rosiglitazone = compound: CN(CCOC1=CC=C(C=C1)C[C@H]2C(=O)NC(=O)S2)C3=CC=CC=N3 (racemic) [rosiglitazone]
In short: as §1

[3] = compound: CN1C2=C(C3=C1C(=O)N(N=C3)CC4=CC(=CC=C4)N)SC(=C2)S(=O)C
In short: as §1

[4] = compound: CN1CCC(CNc2ccc3ncc(-c4cccc(OC(F)(F)F)c4)n3n2)CC1
In short: as §1

saracatinib = compound: CN1CCN(CCOc2cc(OC3CCOCC3)c3c(Nc4c(Cl)ccc5c4OCO5)ncnc3c2)CC1 [saracatinib]
In short: as §1

[5] = compound: CNc1nc(-c2ccc3c(N)n[nH]c3c2)cc(N2C[C@@H](C(=O)NC3CCCCC3)CC[C@H]2C)n1
In short: as §1

epoxomicin = compound: CC[C@H](C)[C@@H](C(=O)N[C@@H]([C@@H](C)O)C(=O)N[C@@H](CC(C)C)C(=O)[C@]1(CO1)C)NC(=O)[C@H]([C@@H](C)CC)N(C)C(=O)C [epoxomicin]
In short: as §1

[6] = compound: CCn1c(C(=O)N(C2CC2)C2CC2)cc2c3c(ncn3C)c(Nc3cc(C)n(C)n3)nc21
In short: as §1

[7] = compound: CN(C)CC(=O)Nc1ccc2[nH]c(=O)c3ccccc3c2c1
In short: as §1

sotrastaurin = compound: CN1CCN(c2nc(C3=C(c4c[nH]c5ccccc45)C(=O)NC3=O)c3ccccc3n2)CC1 [sotrastaurin]
In short: as §1

alvocidib = compound: CN1CC[C@H](c2c(O)cc(O)c3c(=O)cc(-c4ccccc4Cl)oc23)[C@H](O)C1 [alvocidib]
In short: as §1

[8] = compound: CNC(=O)C1=CC=CC=C1NC2=NC(=NC=C2Cl)NC3=C(C=C(C=C3)N4CCOCC4)OC
In short: as §1

defactinib = compound: CNC(=O)c1ccc(Nc2ncc(C(F)(F)F)c(NCc3nccnc3N(C)S(C)(=O)=O)n2)cc1 [defactinib]
In short: as §1

[9] = compound: COC(=O)[C@H](CCSC)NC(=O)C1=C(C=C(C=C1)NC[C@H](CS)N)C2=CC=CC=C2
In short: as §1

Tubastatin A = compound: CN1CCc2c(c3ccccc3n2Cc2ccc(C(=O)NO)cc2)C1 [Tubastatin A]
In short: as §1

[10] = compound: CC[C@@H]1C(=O)N(C)c2cnc(Nc3ccc(C(=O)NC4CCN(C)CC4)cc3OC)nc2N1C1CCCC1
In short: as §1

rucaparib = compound: CNCc1ccc(-c2[nH]c3cc(F)cc4c3c2CCNC4=O)cc1 [rucaparib]
In short: as §1

encorafenib = compound: COC(=O)N[C@@H](C)CNc1nccc(-c2cn(C(C)C)nc2-c2cc(Cl)cc(NS(C)(=O)=O)c2F)n1 [encorafenib]
In short: as §1

Measured: log2 fold change

KCTD7 (UniProt Q96MP8)
inactive: volasertib -0.004 | [1] 0.099 | [2] 0 | rosiglitazone -0.032 | [3] 0.019 | [4] 0.112 | saracatinib 0.075 | [5] -0.023

KRIT1 (UniProt O00522)
inactive: volasertib -0.201 | [1] -0.345 | epoxomicin 0.01 | [6] -0.026 | [2] -0.01 | [7] 0.151 | rosiglitazone -0.269 | [3] -0.12 | [4] -0.08 | saracatinib 0.071 | sotrastaurin -0.146 | alvocidib -0.067 | [8] -0.042 | defactinib -0.057 | [5] 0.129 | [9] -0.201

KLHL20 (UniProt Q9Y2M5)
inactive: volasertib -0.055 | [1] -0.117 | [6] 0.115 | [2] 0.032 | [7] 0.113 | [3] 0.03 | [4] -0.172 | saracatinib 0.063 | Tubastatin A -0.157 | [8] 0.184 | defactinib 0.004 | [5] -0.054 | [9] -0.095

ITSN2 (UniProt Q9NZM3)
inactive: [10] -0.316 | [6] -0.264 | [2] 0.389 | [4] 0.084 | [8] -0.041 | rucaparib -0.004 | encorafenib 0.194

KLHL36 (UniProt Q8N4N3)
inactive: [10] -0.016 | [1] 0.031 | epoxomicin -0.012 | rucaparib -0.279 | encorafenib 0.023

KLHL42 (UniProt Q9P2K6)
inactive: volasertib -0.229 | epoxomicin 0.043 | rosiglitazone 0.164 | [3] -0.081 | saracatinib 0.147 | alvocidib -0.029 | Tubastatin A 0.019 | [5] 0.026

KBTBD7 (UniProt Q8WVZ9)
inactive: [1] 0.091 | [6] 0.075 | [2] -0.045 | [3] 0.025 | [4] -0.107 | saracatinib -0.039 | sotrastaurin -0.008 | [8] -0.055 | [5] -0.268

KMT2E (UniProt Q8IZD2)
inactive: epoxomicin 0.004 | [6] 0.043 | [3] 0.143 | saracatinib 0.059 | alvocidib -0.052 | [8] 0.233 | [5] 0.001

KRT10, A0A1B0GVI3
inactive: [1] 0.058 | [2] -0.332 | [4] 0.045

KCTD21 (UniProt Q4G0X4)
inactive: sotrastaurin 0.061

KMT2A isoform 3 (UniProt Q03164)
inactive: [6] -0.019 | [2] 0.151 | [3] -0.011 | [4] -0.015 | saracatinib 0.066 | sotrastaurin -0.136 | alvocidib -0.154 | [8] -0.045 | [5] 0.168

KIF20B isoform 2 (UniProt Q96Q89)
inactive: [2] 0.07 | [4] -0.136

JOSD1 (UniProt Q15040)
inactive: epoxomicin 0.164 | [6] 0.107 | [3] 0.06 | saracatinib -0.08 | alvocidib -0.118 | [8] -0.064 | [5] 0.217

KIF20A (UniProt O95235)
inactive: epoxomicin 0.013

KDF1 (UniProt Q8NAX2)
inactive: [6] -0.001 | [3] 0.283 | saracatinib 0.136 | alvocidib 0.024 | [8] -0.193 | [5] 0.07

KLHDC8B (UniProt Q8IXV7)
inactive: [6] 0.093 | [2] -0.21 | [7] -0.023 | rosiglitazone 0.045 | [3] -0.138 | [4] -0.087 | saracatinib 0.171 | sotrastaurin 0.06 | alvocidib -0.147 | Tubastatin A 0.042 | [8] -0.093 | defactinib 0.122 | [5] -0.057 | [9] 0.151

KDM6A (UniProt O15550)
inactive: volasertib -0.08 | epoxomicin -0.052 | [7] -0.129 | [3] 0.059 | saracatinib -0.393 | alvocidib 0.028 | defactinib 0.096 | [5] 0.014 | [9] -0.07

KIAA0040 (UniProt Q15053)
inactive: [1] -0.071 | [6] 0.07 | [7] -0.215 | alvocidib 0.078 | [8] -0.194 | defactinib -0.034 | [9] 0.022

KLHDC2 (UniProt Q9Y2U9)
inactive: [1] 0.128

KMT5A (UniProt Q9NQR1)
inactive: [2] 0.091 | [4] -0.2 | sotrastaurin -0.18

KIAA0754 (UniProt O94854)
inactive: volasertib -0.047 | epoxomicin -0.079 | rosiglitazone -0.168 | [3] 0.064 | saracatinib 0.036 | alvocidib 0 | Tubastatin A -0.005 | [5] -0.049

KATNAL1 (UniProt Q9BW62)
inactive: volasertib -0.062 | epoxomicin -0.034 | [7] 0.007 | rosiglitazone 0.088 | [3] 0.07 | saracatinib 0.055 | sotrastaurin -0.134 | alvocidib -0.123 | Tubastatin A -0.078 | defactinib -0.043 | [5] -0.101 | [9] 0.034

KIF13A isoform 4 (UniProt Q9H1H9)
inactive: sotrastaurin -0.027

Four neighbouring entries already listed:
KMT5A (UniProt Q9NQR1)
inactive: [2] 0.091 | [4] -0.2 | sotrastaurin -0.18

KIAA0754 (UniProt O94854)
inactive: volasertib -0.047 | epoxomicin -0.079 | rosiglitazone -0.168 | [3] 0.064 | saracatinib 0.036 | alvocidib 0 | Tubastatin A -0.005 | [5] -0.049

KATNAL1 (UniProt Q9BW62)
inactive: volasertib -0.062 | epoxomicin -0.034 | [7] 0.007 | rosiglitazone 0.088 | [3] 0.07 | saracatinib 0.055 | sotrastaurin -0.134 | alvocidib -0.123 | Tubastatin A -0.078 | defactinib -0.043 | [5] -0.101 | [9] 0.034

KIF13A isoform 4 (UniProt Q9H1H9)
inactive: sotrastaurin -0.027

(cont.)

KCTD1 (UniProt Q719H9)
inactive: [1] 0.005 | epoxomicin 0.079 | [7] -0.067 | [3] 0.205 | saracatinib 0.021 | Tubastatin A -0.033 | defactinib -0.19 | [5] -0.379 | [9] -0.042

KLHL17 (UniProt Q6TDP4)
inactive: epoxomicin 0.081

KDM2B (UniProt Q8NHM5)
inactive: rosiglitazone 0.125 | sotrastaurin -0.134
